The list shows a part of the results. These are further read-outs of the screen, such as a control signal, another cell line or another target. No call is given for them. Compounds called inactive in the main read-out are mostly missing here. Words in brackets tell the shape of the fitted curve; partial curves, single points and poor fits give uncertain potencies.
Assay: qHTS Assay to Find Inhibitors of Chronic Active B-Cell Receptor Signaling
Settings: ABC-DLBCL IkBa-CBG/CBR reporter, luminescence ratio (green luciferase fused to IkBa over red control in TMD8 lymphoma cells), 4 h
Summary of the method: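 Cell line TMD8 (human ABC DLBCL), stably expressing tet-inducible CBG68-IkBa fusion and CBR; IMDM/0.5% FBS; cpd up to 46 uM; dox induction, 4 h, 37C/5% CO2; dual luminescence; green/red ratio; MG132 control.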

[1] = measured here: CBR red luminescence, cell number
[2] = measured here: IkBa-CBG green luminescence

SMILES | AC50 [1] | AC50 [2]
CCCOc1ccc(-c2nnc(-c3ccco3)o2)cc1 | 3.16 µM [rising, full curve, poor fit] | –
CCOc1cc(CN2CCCC(C(=O)c3cccc(C(F)(F)F)c3)C2)ccc1O (stereo not drawn) | 22.4 µM [falling, partial curve, poor fit] | –
COc1ccc(C(=O)Oc2ccc3ccc(=O)oc3c2)cc1 | 0.0891 µM [rising, full curve, poor fit] | –
COc1ccc(-c2ccnc3nc(-n4cccc4)nn23)cc1 | 0.891 µM [falling, full curve, poor fit] | –
Cn1c(=O)c(C#N)c(-c2ccccc2)n2cnnc12 | 0.92 µM [falling, full curve, poor fit] | –
CN(C)CCN(C(=O)c1ccc(Br)s1)c1nc2cc3c(cc2s1)OCCO3 | 3.55 µM [falling, full curve] | –
COc1cc2c(c(OC)c1OC)-c1ccc(NC(=O)c3ccccc3)c(=O)cc1[C@@H](NC(C)=O)CC2 | – | 31.6 µM [falling, single point]
CCNc1nc(SCCOc2ccc(Br)cc2)nc(N(C)C)n1 | 11.2 µM [rising, single point] | –
COCC(=O)Nc1nc(-c2ccc(-c3ccccc3)cc2)cs1 | 14.1 µM [falling, partial curve] | –
CC1=C(C(=O)N2CCOCC2)C(c2ccc(Cl)cc2)NC(=S)N1 (stereo not drawn) | 5.17 µM [rising, partial curve, poor fit] | –
Cc1ccc(CNC(=O)CN2C(=O)NC(C)(c3cccc(Br)c3)C2=O)cc1 (stereo not drawn) | 3.16 µM [falling, single point] | –
COc1ccc(Br)cc1/C=N/NC(=O)Cn1nnnc1N | 35.5 µM [falling, single point] | –
O=C(Nc1ccc(Cl)cc1)N1CCSC1=NCc1ccccc1 | 2.82 µM [rising, partial curve, poor fit] | –
NC(=O)C1CCN(C(=O)c2ccc(NS(=O)(=O)c3ccc(F)cc3)cc2)CC1 | 29.1 µM [falling, single point] | –
CCOC(=O)c1cc2sccc2n1CC(=O)OC | 29.1 µM [falling, single point] | –
COc1ccc2c(=O)c3c(=O)n(Cc4ccco4)c(-c4ccc(C)cc4)nc3oc2c1 | 1.84 µM [falling, full curve] | 20.6 µM [rising, partial curve, poor fit]
Cc1ccccc1C(=O)NNC(=S)NC(=O)c1cccs1 | 4.47 µM [falling, partial curve] | –
COc1ccc(S(=O)(=O)/N=C2/NC(=O)/C(=C\c3cc(OC)c(OC)cc3[N+](=O)[O-])S2)cc1 | 29.1 µM [rising, single point] | –
CCOC(=O)CCSc1nc(C)c2ccccc2n1 | 20.6 µM [rising, partial curve] | –
COc1cc(OC)c(NC(=O)C2CC(=O)N(c3ccc4c(c3)OCCO4)C2)cc1Cl (stereo not drawn) | 0.082 µM [rising, full curve, poor fit] | –
COc1ccccc1N1CCN(CC(=O)c2ccc(F)cc2)CC1 | 35.5 µM [falling, single point] | –
O=[N+]([O-])c1cccc2ccc(/C=C/c3ccc(Cl)cc3)nc12 | 0.92 µM [rising, full curve] | –

SMILES | AC50 [1] | AC50 [2]
Cc1[nH]ccc2c1[nH]c1cc(=O)ccc12 | 35.5 µM [falling, single point] | –
CCCCOC(=O)c1nc(Cl)c(Cl)c(N)c1Cl | 13 µM [rising, single point] | –
CC(C)C(=O)NNc1nc2ccccc2s1 | 6.51 µM [rising, full curve] | –
CC(=O)Nc1ccc(Nc2ncnc3c2cnn3-c2ccccc2)cc1 | 0.355 µM [falling, full curve, poor fit] | –
COc1ccc(/C=N/NC(=O)CN(CCc2ccccc2)S(=O)(=O)c2ccc(NC(C)=O)cc2)cc1OC | 4.61 µM [rising, full curve] | –
C/C(N)=C(/C#N)C(=O)COC(=O)CCSc1ccccc1Cl | 6.51 µM [rising, full curve, poor fit] | –
NC(=O)c1oc2ccccc2c1NC(=O)c1ccco1 | 11.6 µM [falling, partial curve, poor fit] | –
Oc1[nH]c2ccc(Br)cc2c1N=NC(=S)Nc1ccc(F)cc1 | 0.562 µM [rising, partial curve, poor fit] | 3.16 µM [falling, partial curve, poor fit]
COc1cc(/C=C2\SC(=S)N(NS(=O)(=O)c3ccccc3)C2=O)ccc1O | 12.6 µM [rising, single point] | –
CCOC(=O)C1CCCN(C(=O)CC(c2ccccc2)c2ccccc2)C1 (stereo not drawn) | 29.1 µM [falling, single point] | –
CCOC(=O)CC(=O)Nc1ccc(Br)cc1C(=O)O | 22.4 µM [falling, single point] | –
Cc1nc(NC(=O)/C=C/c2ccccc2)sc1C(=O)N1CCCCC1 | 11.2 µM [falling, partial curve] | –
CN(C)c1ccc(/C=N\Nc2ccccn2)cc1 | 1.26 µM [rising, full curve, poor fit] | –
O=C(CNC(=O)c1ccccc1)OCc1cccc(Br)c1 | 12.6 µM [rising, single point] | –
Cn1c2ccccc2c2cc(C(=O)NNS(=O)(=O)c3ccc(F)cc3)sc21 | 23.1 µM [falling, single point] | –
COc1cccc2c(=O)n(CC(=O)Nc3ccc(F)cc3)ccc12 | 29.1 µM [rising, single point] | –
CCOC(=O)c1c(NC(=O)COC(=O)C2CCC2)sc(C(=O)N(C)C)c1C | 6.51 µM [rising, single point] | –
Fc1ccc(-c2nc3ccccc3[nH]2)cc1 | 35.5 µM [falling, single point] | –
O=C1CCCC(O)=C1N=Nc1ccc(Cl)c(Cl)c1 | 10 µM [falling, partial curve, poor fit] | –
CC(=O)Oc1ccccc1C(=O)Nc1ncc([N+](=O)[O-])s1 | 0.1 µM [falling, full curve, poor fit] | –
CCOc1ccccc1NC(=O)CN(c1ccc(C)cc1)S(=O)(=O)c1c(C)n[nH]c1C | 29.1 µM [falling, single point] | –
Cn1cccc1C(=O)NC(=O)COC(=O)c1ccc(O)cc1 | 18.4 µM [falling, single point] | –

SMILES | AC50 [1] | AC50 [2]
CN(C)CCCNC(=O)/C(=N\O)c1ccccc1 | 29.1 µM [rising, single point] | –
O=C(/C=C/c1ccc(-c2ccc(F)cc2)o1)N1CCCC1 | 0.0891 µM [rising, full curve, poor fit] | –
Cc1ccc2oc(-c3cccc(NC(=O)c4ccc(Br)o4)c3)nc2c1 | 29.1 µM [rising, single point] | –
CCOCc1nnc(NC(=O)C2CCN(C(=O)c3ccco3)CC2)s1 | 11.2 µM [falling, partial curve, poor fit] | –
O=P(CCCCCCCCCP(=O)(c1ccccc1)c1ccccc1)(c1ccccc1)c1ccccc1 | 29.1 µM [falling, single point] | –
COc1ccc(-c2csc(NC(=O)CSC(C)C(=O)Nc3cc(C)on3)n2)cc1OC (stereo not drawn) | 14.6 µM [rising, partial curve, poor fit] | –
O=C(CC(Nc1ccccc1)c1ccc(F)cc1)c1ccccc1 (stereo not drawn) | 29.1 µM [falling, single point] | –
O=C(N1CCOCC1)N1CCC(c2nc(-c3ccc(S(=O)(=O)N4CCOCC4)cc3)no2)CC1 | 29.1 µM [rising, single point] | –
O=S(=O)(c1cccs1)N1CN(C2CCCCC2)c2nc3ccccc3nc21 | 0.891 µM [falling, partial curve, poor fit] | –
Cc1nc2ccc(Oc3ccccc3)cc2s1 | 7.31 µM [rising, partial curve] | –
CCCCCC(=O)N1CC2(CC(c3cccc(NC(=O)COc4ccc(Cl)cc4)c3)=NO2)C[C@@H]1C(N)=O (stereo partly drawn) | 11.2 µM [falling, single point] | –
Cc1cc(C(=O)CCC(=O)NCC2COc3ccccc3O2)c(C)s1 (stereo not drawn) | 20.6 µM [rising, single point] | –
C=C(C)COc1ccc2c(CC)cc(=O)oc2c1 | 1.26 µM [rising, partial curve, poor fit] | –
O=C(CN1CCC(C(=O)c2ccc3c(c2)OCCO3)CC1)NCc1ccccc1 | 22.4 µM [falling, single point] | –
Cc1ccccc1OCC(O)Cn1c(SC(C)C)nc2c1c(=O)[nH]c(=O)n2C (stereo not drawn) | 0.447 µM [rising, partial curve, poor fit] | –
COc1ccccc1C(=O)Nc1cccc(SC)c1 | 29.1 µM [falling, single point] | –
CCCC(=O)Nc1nc(-c2ccc(OC)cc2)cs1 | 3.66 µM [rising, single point] | –
CC(=O)Oc1ccc(NC(=O)C2CCCCC2)c(C(=O)O)c1 | 0.731 µM [falling, full curve] | –
O=C1/C(=C\c2ccco2)SC(=S)N1c1ccc(O)cc1 | 20.6 µM [falling, partial curve, poor fit] | –
COC(=O)c1ccc(C)c(NS(=O)(=O)c2ccc(OC)cc2)c1 | 13 µM [rising, partial curve, poor fit] | 8.2 µM [falling, partial curve]
NS(=O)(=O)c1ccc(CNC(=O)c2ccc(NS(=O)(=O)c3ccc4[nH]c(=O)[nH]c4c3)cc2)cc1 | 16.4 µM [rising, single point] | –

Structural class: the compounds so far containing a nitro group on carbon (3)
SMILES | AC50 [1] | AC50 [2]
COc1ccc(S(=O)(=O)/N=C2/NC(=O)/C(=C\c3cc(OC)c(OC)cc3[N+](=O)[O-])S2)cc1 | 29.1 µM [rising, single point] | –
O=[N+]([O-])c1cccc2ccc(/C=C/c3ccc(Cl)cc3)nc12 | 0.92 µM [rising, full curve] | –
CC(=O)Oc1ccccc1C(=O)Nc1ncc([N+](=O)[O-])s1 | 0.1 µM [falling, full curve, poor fit] | –

Full records as entered above. Values in the order: AC50 [1]	AC50 [2]
Cc1nc2ccc(Oc3ccccc3)cc2s1 in the list: 7.31 µM [rising, partial curve]	–
NS(=O)(=O)c1ccc(CNC(=O)c2ccc(NS(=O)(=O)c3ccc4[nH]c(=O)[nH]c4c3)cc2)cc1 in the list: 16.4 µM [rising, single point]	–

From PubChem BioAssay AID493014 (National Center for Advancing Translational Sciences (NCATS), 2011)
